# Reference: publication doi:10.1101/2025.09.02.671137 (bioRxiv, 2025)
# For some assays here: A weaker result is weaker than the reference pair of the same experiment. For some assays here: Protein sequences can lack the tags named with them. For some assays here: The exact form of at least one protein or probe is not confirmed. For some assays here: At least one verdict rests on a figure or table, not on a statement of the authors.
# What was measured:
# [1] = system: RPA; assay: competition EMSA; settings: 20 nM RPA loaded first, displaced by Cdc13
# [2] = biological target: T1, Cdc13 (Saccharomyces cerevisiae) (UniProt P32797); assay: competition EMSA; settings: Tel22 strongly favored when both at 5 nM; residues 1-924
# T1 sequence (looked up): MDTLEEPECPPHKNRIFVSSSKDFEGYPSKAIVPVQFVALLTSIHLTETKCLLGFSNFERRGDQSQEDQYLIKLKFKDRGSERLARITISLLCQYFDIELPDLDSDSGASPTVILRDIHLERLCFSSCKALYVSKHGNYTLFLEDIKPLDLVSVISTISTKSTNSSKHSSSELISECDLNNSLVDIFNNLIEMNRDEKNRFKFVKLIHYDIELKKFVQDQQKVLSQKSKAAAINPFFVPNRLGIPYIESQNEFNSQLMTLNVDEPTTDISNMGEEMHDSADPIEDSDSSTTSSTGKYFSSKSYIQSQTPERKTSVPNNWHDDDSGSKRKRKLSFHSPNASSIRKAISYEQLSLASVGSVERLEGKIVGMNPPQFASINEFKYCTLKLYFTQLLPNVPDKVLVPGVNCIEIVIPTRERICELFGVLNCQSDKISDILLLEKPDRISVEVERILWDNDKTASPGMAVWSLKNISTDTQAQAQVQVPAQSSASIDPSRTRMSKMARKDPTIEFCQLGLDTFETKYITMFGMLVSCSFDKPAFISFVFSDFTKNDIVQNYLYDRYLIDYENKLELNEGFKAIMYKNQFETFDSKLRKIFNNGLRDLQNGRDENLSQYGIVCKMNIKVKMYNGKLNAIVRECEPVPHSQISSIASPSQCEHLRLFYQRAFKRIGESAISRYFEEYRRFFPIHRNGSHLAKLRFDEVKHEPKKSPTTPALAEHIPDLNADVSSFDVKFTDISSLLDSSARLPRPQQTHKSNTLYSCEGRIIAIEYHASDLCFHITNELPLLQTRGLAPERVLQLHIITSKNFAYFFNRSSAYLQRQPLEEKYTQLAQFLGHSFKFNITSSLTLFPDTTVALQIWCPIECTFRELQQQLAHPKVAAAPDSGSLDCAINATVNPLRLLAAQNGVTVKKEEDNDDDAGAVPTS
# [3] = system: Ku (Ku70-Ku80) (Saccharomyces cerevisiae); assay: DNase I footprinting; settings: protects ~15 bp near junction
# [4] = system: Ku (Ku70-Ku80) + Cdc13; assay: DNase I footprinting; settings: Ku first, then Cdc13, Ku displaced from junction
sequence,measurement,setting,value
ATAATGATAAGACGTAGAGTGGGTGTGTGTGTGGGGTGGT / ACACCCACTCTACGTCTTATCATTAT [Tel14],binding result,[1],binds
TGTGGGTGTGGTGTGGGTGTGG [ssTel22],binding result,[2],binds more weakly
ATAATGATAAGACGTAGAGTGGGTGTGTGTGTGGGGTGGTGTGTGTGG / ACACCCACTCTACGTCTTATCATTAT [Tel22],binding result,[1],binds
TTCAGACAACAGTAGACTACAAGGATGACGACAAGATTAAGCTTTCTTATGTGGGTGTGTGTGTGGGGTGGTGTGTGTGG / ACACCCACATAAGAAAGCTTAATCTTGTCGTCATCCTTGTAGTCTACTGTTGTCTGAA [L-Tel22],binding result,[3],binds
same,binding result,[4],binds
